{"source": "PubChem BioAssay AID1347076", "about": "(National Center for Advancing Translational Sciences (NCATS), 2019)", "note": "The whole screen tested about 400,000 compounds, of which about 13,000 (3.2%) were called active. Inconclusive means that the source gave no clear call. Such entries were picked first, then a sample of the others. Calls follow the shape of the dose curve; as a rule, active = well fitted cell-killing curve with a large enough effect; inconclusive = small, poorly fitted or top-dose-only effect, or effect the other way; inactive = flat fitted curve, though single readings scatter. Where the call is inconclusive, the potency comes from a doubtful curve fit. Potency is read from the fitted curve at half-maximal effect."}
{"assay": "qHTS assay for MDR1-selective chemotherapeutics: Primary screen using the drug-selected MDR subline cells KB-V1; also: nearly all actives have a fitted effect of over 60% in size", "conditions": "KB-V1 MDR cells viability, CellTiter-Glo, 72 h; series mostly up to 46.1 µM", "in_short": "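KB-V1, DMEM (no phenol red) + 10% FBS; cpd pin-transferred, titration series; 72 h, 37 degrees C; CellTiter-Glo, luminescence. Data normalized, curve-fit.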"}
{"smiles": "CCOC(=O)c1cn2nc(-c3ccc(OCC)cc3)cc2nc1C1CCN(C(=O)OC(C)(C)C)CC1", "Potency": "inconclusive: 2.91 µM [cytotoxic, full curve]"}
{"smiles": "COc1ccc(NC(=O)c2ccco2)cc1NC(=O)c1ccc(Br)o1", "Potency": "inconclusive: 14.6 µM [cytotoxic, single point]"}
{"smiles": "CCN(CCC#N)c1ccc(/C=C/c2ccnc3ccccc23)cc1", "Potency": "inconclusive: 16.4 µM [cytotoxic, partial curve, poor fit]"}
{"smiles": "CCC(CC)C(=O)c1c[nH]c(C(=O)NCc2ccc(F)cc2)c1", "Potency": "inactive"}
{"smiles": "Nc1ccc(C(=O)n2c3ccccc3c3ccccc32)cc1", "Potency": "active: 1.84 µM"}
{"smiles": "COc1cccc(NC(=O)CN(C)CC(=O)Nc2ccc(C)cc2Cl)c1", "Potency": "inconclusive: 18.4 µM [cytotoxic, single point]"}
{"smiles": "Cc1ccc(SCC(=O)Nc2nccs2)cc1", "Potency": "inactive"}
{"smiles": "Cc1ccc(C)c(NC(=S)NCc2ccc3c(c2)OCO3)c1", "Potency": "inconclusive: 35.5 µM [cytotoxic, partial curve, poor fit]"}
{"smiles": "CCOC(=O)c1nn(-c2ccccc2)c2nc(-c3ccc(OC)cc3)c(C#N)c(=O)n12", "Potency": "active: 23.1 µM"}
{"smiles": "Cc1ccc(-c2cnc(C(O)c3ccc(Cl)c(F)c3)[nH]2)cc1", "note": "(centres undefined)", "Potency": "inactive"}
{"smiles": "COc1ccc(-c2nn(-c3ccc(F)cc3)c3c2cnc2cc4c(cc23)OCO4)cc1", "Potency": "inactive"}
{"smiles": "Cc1ccc(NC(=O)CCSc2nnc(-c3ccco3)o2)cc1", "Potency": "active: 23.1 µM"}
{"smiles": "COC(=O)Cn1cnc2c(Cl)nc(F)nc21", "Potency": "inactive"}
{"smiles": "CCOC(=O)C[C@H]1c2ccccc2S(=O)(=O)N1Cc1cc(OC)c(OC)c(OC)c1", "Potency": "inconclusive: 11.6 µM [cytotoxic, partial curve]"}
{"smiles": "COc1ccc(C2=NN3C(=O)c4c(ccc(OC)c4OC)C3C2)cc1", "note": "(centres undefined)", "Potency": "inconclusive: 9.2 µM [cytotoxic, partial curve]"}
{"smiles": "C=CC[C@@H](CC(=O)NCCO)C(=O)NC[C@H](OC(=O)[C@@H](CC=C)Cc1ccc(F)cc1)c1ccccc1", "Potency": "inconclusive: 29.1 µM [rising, single point]"}
{"smiles": "CCCCCCC(=O)Nc1nc(C)c(-c2csc(Nc3ccccc3OC)n2)s1", "Potency": "inconclusive: 4.11 µM [rising, full curve, poor fit]"}
{"smiles": "Cn1c2c(c(=O)n(C)c1=O)C(c1ccccc1[N+](=O)[O-])CC(=O)N2", "note": "(centres undefined)", "Potency": "inactive"}
{"smiles": "COc1cc2[nH]c(=O)c(C(=O)NCc3ccc(C)cc3)c(O)c2cc1OC", "Potency": "inactive"}
{"smiles": "C=CCN1CC(c2nc3ccccc3n2CCOc2ccccc2)CC1=O", "note": "(centres undefined)", "Potency": "active: 14.6 µM"}
{"smiles": "CCc1nnc(NC(=O)C2CCCN2C(=O)Nc2ccc(C)cc2)s1", "note": "(centres undefined)", "Potency": "inactive"}
{"smiles": "CS(=O)(=O)N(CC(=O)Nc1ccc(CC#N)cc1)c1ccc(C23CC4CC(CC(C4)C2)C3)cc1", "Potency": "inconclusive: 20.6 µM [cytotoxic, single point]"}
{"smiles": "CCCCC(=O)Nc1ccc(C(=O)NNC(=S)NC(=O)c2ccccc2[N+](=O)[O-])cc1", "Potency": "inactive"}
{"smiles": "CC(C)(C)[C@@H]1COC(=O)[C@H](Cc2ccc(F)cc2)CC/C=C\\C[C@@H](CC(=O)N(CCO)Cc2ccccc2)C(=O)N1", "Potency": "inconclusive: 7.31 µM [rising, partial curve, poor fit]"}
{"smiles": "COc1cc(NC(=O)c2cc3nc(-c4ccc(C)cc4)cc(C(F)(F)F)n3n2)cc(OC)c1OC", "Potency": "inactive"}
{"smiles": "Cn1c2ccccc2c2cc([N+](=O)[O-])ccc21", "Potency": "inconclusive: 6.51 µM [cytotoxic, full curve, poor fit]"}
{"smiles": "COc1ccc(Cl)cc1C1=NOC2(CCC2)C(=O)N1Cc1ccc(NC(C)=O)cc1", "Potency": "inconclusive: 7.31 µM [cytotoxic, partial curve]"}
{"smiles": "CN1CCN(S(=O)(=O)c2ccc(NC(=O)Nc3cccc(Cl)c3)cc2)CC1", "Potency": "inactive"}
{"smiles": "CC(=O)N1CCN(c2cc(N3CCc4ccccc4C3)c(F)cc2[N+](=O)[O-])CC1", "Potency": "active: 18.4 µM"}
{"smiles": "COc1cccc2sc(NNC(=O)C3COc4ccccc4O3)nc12", "note": "(centres undefined)", "Potency": "inconclusive: 18.4 µM [cytotoxic, single point]"}
{"smiles": "Cc1nn(Cc2ccc(C(=O)N3N=C(C(F)F)CC3(O)C(F)F)o2)c(C)c1[N+](=O)[O-]", "note": "(centres undefined)", "Potency": "inconclusive: 13 µM [cytotoxic, single point]"}
{"smiles": "Cc1nnc(Sc2cc(NCCO)c([N+](=O)[O-])c3nonc23)s1", "Potency": "inconclusive: 29.1 µM [rising, single point]"}
{"smiles": "COc1ccc(C2c3c(n(C)c4ccccc34)C(=O)N2CC(=O)Nc2ccccc2Cl)cc1", "note": "(centres undefined)", "Potency": "inactive"}
{"smiles": "O=C(NCc1cccc(Cl)c1)C1Cc2c(-c3ccccc3Oc3ccccc3)ccnc2O1", "note": "(centres undefined)", "Potency": "inconclusive: 7.31 µM [cytotoxic, partial curve]"}
{"smiles": "CNC(=O)c1ccc(NC(=O)Nc2ccccc2)cc1", "Potency": "inconclusive: 29.1 µM [rising, single point]"}
{"smiles": "CCc1ccc(NC(=O)C2CC(=O)N(C(C)C)C2)cc1", "note": "(centres undefined)", "Potency": "inconclusive: 29.1 µM [cytotoxic, partial curve, poor fit]"}
{"smiles": "COc1ccc(C2C(C#N)=C(N)N(c3sc4c(c3C#N)CCCC4)C3=C2C(=O)CC(C)(C)C3)cc1", "note": "(centres undefined)", "Potency": "active: 5.8 µM"}
{"smiles": "O=c1cc(C(F)(F)F)[nH]c2ccc(OC(F)(F)F)cc12", "Potency": "inconclusive: 20.6 µM [cytotoxic, partial curve]"}
{"smiles": "COc1ccc(NCc2nnc(SCc3ccccc3)n2-c2ccc(OC)cc2)cc1", "Potency": "active: 8.2 µM"}
{"smiles": "Cc1ccc(NC(=O)CC(C)c2ccccc2)cc1S(=O)(=O)N1CCOCC1", "note": "(centres undefined)", "Potency": "inconclusive: 25.9 µM [cytotoxic, partial curve, poor fit]"}
{"smiles": "Cn1c(=O)c2c(nc(NCCCO)n2C/C=C/c2ccccc2)n(C)c1=O", "Potency": "inconclusive: 16.4 µM [cytotoxic, single point]"}
{"smiles": "Cc1ccc(SCCCn2cnc3ccccc3c2=O)cc1", "Potency": "inconclusive: 20.6 µM [cytotoxic, partial curve, poor fit]"}
{"smiles": "O=C(NCCCc1nc2ccccc2n1CCCCOc1ccccc1)C1CCCCC1", "Potency": "inconclusive: 29.1 µM [cytotoxic, single point]"}
{"smiles": "O=C(/C=C/[C@H]1O[C@@H](n2ccc(=O)[nH]c2=O)[C@H](O)[C@@H]1O)NCC1CCCO1", "note": "(some centres undefined)", "Potency": "inactive"}
